In PubChem BioAssay AID2685 (National Center for Advancing Translational Sciences (NCATS), 2010):
The list shows a part of the results. Further columns of the screen follow, without active or inactive calls. Most of these compounds were active or inconclusive in the main read-out, so they are no random draw. Words in brackets tell the shape of the fitted curve; partial curves, single points and poor fits give uncertain potencies.

Assay: qHTS Assay for Lipid Storage Modulators in Drosophila S3 Cells;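 for cell number change: cells counted by Cell Tracker Red CMTPX staining in the red channel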
Details: BODIPY lipid droplet fluorescence, 18-24 h; for cell number change: measured here: cell count max response, cells fed with added oleic acid
Summary of the method: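 Drosophila S3 cells loaded with oleic acid (400 uM, as added) and compounds at several concentrations; lipid droplets imaged by 488-nm laser-scanning cytometry, 500–530 nm intensity and object ratio to cell channel. Percent activity normalized to 20 uM Triacsin C.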

[1] = measured here: cell number channel AC50, cells fed with added oleic acid
[2] = measured here: lipid fluorescence (Fed channel) AC50, cells fed with added oleic acid

SMILES | cell number change [%] | AC50 [1] | AC50 [2]
COCCNC(=O)C(c1ccc(O)cc1)N(Cc1ccco1)C(=O)CCC(=O)Nc1ccccn1 (stereo unspecified) | -19 |  | 
CC1(C)Cc2c(C#N)c(OCC(=O)c3ccc(Cl)cc3)nc(-c3ccco3)c2CO1 |  | 0.259 µM [rising, partial curve, poor fit] | 0.291 µM [rising, partial curve, poor fit]
CCOC(=O)c1ccccc1NC(=O)CN(c1ccccc1C)S(C)(=O)=O |  |  | 4.61 µM [rising, single point]
O=C(CN1N=C(c2ccccc2)CCC1=O)NCc1cccs1 | 39.4 | 20.6 µM [rising, single point] | 29.1 µM [rising, single point]
Cc1cc(Cl)ccc1NC(=O)NC1CCN(S(=O)(=O)c2ccc(F)cc2)CC1 |  | 0.092 µM [rising, partial curve] | 0.0291 µM [rising, full curve, poor fit]
CSC1=N/C(=C\c2ccc(Br)o2)C(=O)S1 |  |  | 0.184 µM [falling, full curve, poor fit]
CC1=C(C(=O)N2CCOCC2)C(c2cccs2)NC(=O)N1 (stereo unspecified) | -17.1 |  | 0.0651 µM [rising, full curve, poor fit]
O=C(Nc1ccc(NC(=O)c2cccs2)cc1)c1ccccc1 |  | 6.51 µM [falling, single point] | 5.17 µM [falling, full curve]
CCc1ccc(OC(C)C(=O)N(Cc2ccco2)C2CCS(=O)(=O)C2)cc1 (stereo unspecified) | 24.8 |  | 
CCc1ccc2[nH]c(=O)c(CN(Cc3ccccc3)C(=O)Nc3ccccc3OC)cc2c1 | 26.8 |  | 
CC(C)CNC(=O)NC(=O)COc1ncnc2sccc12 | 19.3 |  | 
COC(=O)c1ccc(CN2C(=O)c3ccccc3C2=O)o1 | 5.22 |  | 29.1 µM [rising, single point]
Cc1ccc(C2CC(c3cccc(C)c3)n3nc(N)nc3N2)cc1 (stereo unspecified) | 0.711 |  | 
COC(=O)c1sc(-c2ccc(C(C)(C)C)cc2)cc1NC(=O)/C=C/C(=O)O | -30.4 | 0.82 µM [falling, full curve] | 0.651 µM [falling, full curve, poor fit]
CCCc1ncc(C(O)c2cccc(OC)c2)n1C (stereo unspecified) | 13.4 |  | 
Cc1ccc(S(=O)(=O)CCc2nnc(NC(=O)c3ccco3)s2)cc1 | -112 | 0.082 µM [falling, full curve, poor fit] | 2.91 µM [falling, partial curve]
CCCCn1c(=O)[nH]c(=O)c2c1nc(-c1ccc(C(F)(F)F)cc1)n2C | 80.8 | 4.11 µM [rising, full curve] | 0.206 µM [rising, partial curve, poor fit]
N#CC(C#N)=c1ccc2c(c1)N1C3=C(CCCC3)CC3CCCCC31N=2 (stereo unspecified) | -79.3 | 29.1 µM [falling, single point] | 
O=C(O)COc1ccc(-c2nc(-c3ccccc3)c(-c3ccccc3)[nH]2)cc1 | 11.8 |  | 
COc1ccc(C(=O)C2CCCN(Cc3ccc(Sc4nncn4C)o3)C2)cc1F (stereo unspecified) | 15.9 |  | 18.4 µM [rising, partial curve, poor fit]

SMILES | cell number change [%] | AC50 [1] | AC50 [2]
COc1ccccc1NS(=O)(=O)c1cccc(C(=O)N/N=C/c2ccc(NC(C)=O)cc2)c1 | 123 | 6.51 µM [falling, single point] | 6.51 µM [falling, single point]
O=C(NCc1ccccc1Cl)C1CCN(S(=O)(=O)c2ccc(N3CCCC3=O)cc2)CC1 | 58.6 | 23.1 µM [rising, single point] | 
COCCCn1c(=O)c2ccccc2n(CC(=O)NC2CCCCC2)c1=O | 21.8 |  | 
CC(=O)N1CCN(c2ccccc2NC(=O)c2cc3ccccc3o2)CC1 | -38.9 | 25.9 µM [falling, single point] | 32.6 µM [falling, partial curve]
COc1cccc(NC(=O)Nc2nnc(N3CCCCC3C)s2)c1 (stereo unspecified) | 4.33 |  | 5.17 µM [rising, single point]
O=C(Cc1ccc(-n2c(=O)c3sccc3n(CC(=O)Nc3ccccc3F)c2=O)cc1)NCc1ccco1 |  |  | 0.651 µM [rising, single point]
CC(CN1CCCCC1)OC(=O)c1ccc2c(c1)OCO2 (stereo unspecified) | 15.9 |  | 6.51 µM [falling, single point]
Cc1ccc(S(=O)(=O)NCC2CCC(C(=O)NCCCOC(C)C)CC2)cc1 (stereo unspecified) | -2.3 |  | 0.116 µM [rising, full curve, poor fit]
O=C(NCCOc1ccccc1)c1n[nH]c(=O)c2ccccc12 | 108 | 29.1 µM [rising, single point] | 
O=C(O)c1cc2nc(-c3ccccc3)cc(C(F)(F)F)n2n1 | -1.47 |  | 1.03 µM [falling, full curve, poor fit]
CC1CC(=O)C2=C(C1)Nc1ccccc1N=C2 (stereo unspecified) | 34.7 |  | 2.59 µM [falling, partial curve]
COC(=O)c1ccc(OC(=O)C2CC(=O)N(c3ccc(C)cc3C)C2)cc1 (stereo unspecified) | -17.3 | 0.651 µM [falling, full curve, poor fit] | 0.731 µM [falling, full curve]
COC(=O)C1=C(C)NC2=C(C(=O)CC(c3cccs3)C2)C1c1ccsc1 (stereo unspecified) | 5.43 |  | 10.3 µM [rising, partial curve]
COc1ccc(NC(=O)c2ccco2)cc1NC(=O)c1ccccc1F | 298 | 29.1 µM [rising, partial curve] | 
O=C(CCc1ccccc1)NNC(=O)c1ccccc1Cl |  |  | 4.11 µM [rising, single point]
Cc1ccc(Nc2nc(CSc3nnc(-c4cccnc4)n3-c3ccccc3C)cs2)cc1 | 33.4 | 0.291 µM [rising, full curve, poor fit] | 16.4 µM [rising, partial curve, poor fit]
COc1ccc(C(CNC(=O)c2ccc(OC)c(S(=O)(=O)N3CCCC3)c2)N2CCCC2)cc1 (stereo unspecified) | -2.71 |  | 
Cc1cccc2c1cnn2C(=O)Nc1ccccc1Br |  |  | 6.51 µM [rising, single point]
Cc1ccc(OCC(=O)Nc2ccc(S(=O)(=O)N3CCCCC3)cc2)c([N+](=O)[O-])n1 |  | 6.51 µM [rising, single point] | 
O=C(NCc1nnc2c(C(F)(F)F)cc(Cl)cn12)c1cccnc1 | -0.382 |  | 6.51 µM [falling, single point]

As entered above.
AC50 [2], CC(=O)N1CCN(c2ccccc2NC(=O)c2cc3ccccc3o2)CC1 is entered as 32.6 µM [falling, partial curve]
cell number change [%], CC(CN1CCCCC1)OC(=O)c1ccc2c(c1)OCO2 (stereo unspecified) is entered as 15.9
AC50 [1], O=C(NCCOc1ccccc1)c1n[nH]c(=O)c2ccccc12 is entered as 29.1 µM [rising, single point]
cell number change [%], COc1cccc(NC(=O)Nc2nnc(N3CCCCC3C)s2)c1 (stereo unspecified) is entered as 4.33

Next part.

SMILES | cell number change [%] | AC50 [1] | AC50 [2]
Cc1cnn(C(=O)Cn2nc(C(F)F)c(Br)c2C)c1 | -30.4 | 16.4 µM [falling, single point] | 32.6 µM [falling, single point]
Cc1noc(C)c1CCC(=O)N1CCCC(CCC(=O)NCc2ccc(F)c(F)c2)C1 (stereo unspecified) | -6.11 |  | 
Cc1cc(SCc2cc(=O)n3ccsc3n2)nc2ccccc12 | 98.2 |  | 4.11 µM [rising, single point]
CCCC(=O)NC(=S)Nc1ccc(N2CCN(C(=O)c3cccs3)CC2)cc1 | 13 | 0.82 µM [rising, full curve] | 
O=C(Nc1nc2c(s1)CCCC2)c1cccc(S(=O)(=O)N2CCCc3ccccc32)c1 |  | 0.731 µM [falling, single point] | 
COc1cc2c(cc1NC(=O)c1ccco1)CCCC2 | 24.9 | 0.082 µM [falling, full curve, poor fit] | 20.6 µM [rising, partial curve]
Nc1nnc(SCCCOc2ccc(F)cc2)s1 | 9.73 |  | 
Cc1nc(SCCOc2ccccc2F)[nH]c(=O)c1Cc1ccccc1 | -46.1 | 18.4 µM [falling, partial curve, poor fit] | 14.6 µM [falling, partial curve, poor fit]
CCCc1cc(=O)[nH]c(-n2[nH]c3c(c2=O)CCCC3)n1 | -14.6 |  | 
O=C(CN1C(=O)c2cccc3cccc1c23)Nc1ccc(S(=O)(=O)N2CCOCC2)cc1 | 7.93 |  | 2.91 µM [rising, partial curve]
O=C(CSCc1ccccc1)N/N=C/c1cc2c(cc1Br)OCO2 | -27.9 |  | 29.1 µM [falling, single point]
O=C(Nc1ccc(Br)cc1)c1ccc2c(c1)OCO2 | 9.34 |  | 
CCCN1C(=O)/C(=N\OCC(=O)Nc2ccc(C(C)C)cc2)c2ccccc21 | 18.5 | 6.51 µM [falling, partial curve, poor fit] | 
COc1ccc2oc(-c3cccc(NC(=O)CSc4ccc(Cl)cc4)c3)nc2c1 | -46.7 | 14.6 µM [falling, partial curve, poor fit] | 16.4 µM [falling, single point]
CCOC(=O)C1CCN(C(=O)CCS(=O)(=O)Cc2ccccc2)CC1 | 19.7 |  | 
Cc1ccc(-n2ncc3c(=O)n(CC(=O)NC4CCCCC4)cnc32)cc1 | 17.5 |  | 20.6 µM [rising, single point]
NC(=O)Cc1ccc2c(c1)[nH]c1ccccc12 | -44.3 | 18.4 µM [falling, single point] | 32.6 µM [falling, single point]
Cc1nnc(SCCn2c(N(C)Cc3ccccc3)nc3c2c(=O)[nH]c(=O)n3C)s1 | 0.425 |  | 20.6 µM [falling, single point]
O=C1N2CCSC2=NC1(Nc1ccccn1)C(F)(F)F (stereo unspecified) | -13.9 | 3.66 µM [falling, partial curve, poor fit] | 6.51 µM [falling, partial curve, poor fit]
